Laboratory results: patent US20120225093A1, “Abrogating HIV-1 Infection via Drug-Induced Reactivation of Apoptosis” (UNIVERSITY OF MEDICINE AND DENTISTRY OF NEW JERSEY, priority 2010, published 2012)
“Also recorded” adds a separate entry of the source. For some assays here: At least one compound was matched to its structure with a doubt left. Some of these results come from one statement about several compounds together.

How the values were obtained:
Format in all cases: cell-based
HIV-1 RNA = assay: RNase protection assay of HIV RNA from molecular clones in 293T cells; conditions: nucleus and cytoplasm; with or without Rev
Method: 293T cells (2×10^6 cells) were seeded in 10-cmdiameter plates and transfected 20 hr later by using Transfectene (Bio-Rad) and treated with compounds. Cells were harvested at 15 hr post-transfection and suspended in a low salt buffer (10 mM Tris.HCl pH 7.4, 10 mM NaCl, 1.5 mM MgCl2, and 0.5% NP-40). Cells were vortexed for 10 sec and incubated on ice for 10 min. Cell extracts were centrifuged at 500×g for 3 min, followed by cytoplasmic and nuclear RNA isolation from the supernatant and the pellet, respectively, using Trizol (Invitrogen) according to the manufacturer's instructions. […]
Next, the effects of CPX and DEF on viral mRNA expression were examined. […] To determine whether the action of CPX and DEF is exerted at the level of the accumulation, splicing or nucleo-cytoplasmic distribution of HIV RNA, pNL4-3-LucE- was transfected into 293T cells and monitored spliced and unspliced HIV RNA after drug treatment. […]
The rev-defective molecular clone pMRev(−) contains the entire HIV-1 genome but Rev expression is prevented by substitutions in its initiation codon. To compare the inhibitory effect of CPX and DEF in the presence and absence of Rev, cells were transfected with pMRev(−), either with or without a Rev expression vector, and RNA was analyzed by RPA as above. […]

HIV-1 LTR = assay: RNase protection assay of pLTR-FF transcripts (elongation, RNA stability); conditions: with or without Tat
Method: RPA was performed with 10 μg of cytoplasmic RNA and 5 μg of nuclear RNA, using the RPAIII kit from Ambion (Austin, Tex.) according to the manufacturer's instructions. Synthesis of radiolabeled RNA and protection assays were performed as described in Young et al. Mol Cell Biol 2003, 23:6373-6384. To generate antisense RNA probe against the HIV-1 major splice site, firefly luciferase and Renilla luciferase pBSII-KS+HIV (+80-341), pSP-luc and pSP-rluc were linearized with HindIII, XbaI and BsaI, respectively. The resulting probes were 309, 390 and 245 nt long, respectively. […]
Results of the deletion analysis implied that sensitivity to the drugs is conferred by the promoter or another feature in the HIV-1 LTR. […] Nuclear and cytoplasmic RNA was analyzed in RNase protection assays using a probe complementary to the promoter-proximal region of HIV transcripts (FIG. 6A). […]
To examine the possibility that the drugs decrease the stability of RNA transcribed from the HIV promoter, cells transfected with pLTR-FF were incubated in the presence or absence of CPX. Actinomycin D was added to some cultures 12 hr later to block further transcription, and FF RNA was monitored by RPA at intervals thereafter (FIG. 6D, top panel). FF RNA levels were quantified and normalized to the levels at 12 hr (FIG. 6D, bottom panel). […]

HIV-1 promoter = assay: Dual luciferase assay, HIV-1 molecular clone pNL4-3-LucE- and derived constructs in 293T cells; conditions: DFOX 15 μM; for decrease of HIV-encoded luciferase expression: run parallel to IRE reporter (FIG. 11B)
Method: Plasmids were introduced into 2×10^5 293T cells by transfection using Lipofectamine 2000 (Invitrogen) according to the manufacturer's instructions. Compounds (such as CPX or DEF) were added simultaneously. Cells were harvested at 12 hr post-transfection, washed with PBS, lysed in 0.15 ml of 1× passive lysis buffer (Promega), and assayed for luciferase activity using the Promega dual luciferase reporter system according to the manufacturer's instructions. Jurkat cells (1×10^6 cells) were transfected using FuGENE 6 (Roche) according to the manufacturer's instructions and assayed in a similar fashion after pelleting.
293T cells (10^5 cells/well of 12-well microplates) were seeded and transfected 20 hr later with a firefly luciferase (Luc)-expressing reporter plasmid and corresponding Renilla luciferase (Ren)-expressing reference plasmid using TransFectin™ (Bio-Rad, Hercules, Calif.). The bioavailable intracellular iron concentration was monitored using plasmids obtained from B. Galy and M. W. Hentze (EMBL, Heidelberg). Plasmid pcFIF-Luc contains the mouse ferritin H 5′-UTR with an iron response element (IRE) controlling Luc; pcFIRo-Ren is a similar construct expressing a mutated non-functional IRE fused to Ren. The activity of the HIV-1 promoter was monitored using the pNL4-3-Luc E molecular clone (Chen et al. (1994) J Virol 68: 654-660.), based on the recombinant infectious proviral clone that contains DNA from HIV isolates NY5 (5′ half) and IIIB (3′ half). This plasmid, obtained from D. Baltimore (Caltech, Pasadena), contains the Luc gene in place of 102 nucleotides from nef and 6 nucleotides from env. pCMV-Ren (Promega, Madison, Wis.) was used as reference for pNL4-3-Luc E. Compounds were added at the time of transfection. Cells were harvested 12 hr later, washed with phosphate-buffered saline, and lysed for the dual luciferase assay (Dual Luciferase™ Reporter Assay System; Promega, Madison, Wis.). Luc data were normalized to the Ren internal controls (Hogue et al. (2009) Retrovirology 6: 90.).
293T cells were selected as a model system to explore the relationship between the drugs, eIF5A and HIV gene expression. These cells efficiently transcribe HIV-1 genes from molecular clones as well as subviral constructs, allowing for early detection of changes in HIV gene expression. To establish the system, assays were carried out to examine the effect of CPX and DEF on the expression of firefly luciferase (FF) from the HIV-1 molecular clone, pNL4-3-LucE-, engineered to carry the FF gene in place of the viral nef gene. […] Dual luciferase assays were conducted at 12 hr post-transfection and results are expressed as relative luciferase activity (FF:Ren). […]

`Cc1cc(C2CCCCC2)n(O)c(=O)c1` [CPX, 6-cyclohexyl-1-hydroxy-4-methylpyridin-2[1H]-one] was tested, and the “reduction of spliced and unspliced RNAs from pMRev(−)” value (HIV-1 RNA) was 2-3 fold, the “reduction of short and long promoter-proximal transcripts from pLTR-FF” value (HIV-1 LTR) was 50-80% and the “decrease of HIV-encoded luciferase expression” value (“decrease” for short) (HIV-1 promoter) was 40-50%.

With `Cc1c(O)c(=O)ccn1C` [DEF, 3-hydroxy-1,2-dimethylpyridin-4(1H)-one] the “reduction of spliced and unspliced RNAs from pMRev(−)” value (HIV-1 RNA) was 2-3 fold, the “reduction of short and long promoter-proximal transcripts from pLTR-FF” value (HIV-1 LTR) was 50-80% and the “decrease” value (HIV-1 promoter) was 40-50%.

In the case of `CC(=O)N(O)CCCCCNC(=O)CCC(=O)N(O)CCCCCNC(=O)CCC(=O)N(O)CCCCCN` [DFOX, deferoxamine], the “repression of luciferase expression (FF:Ren) from pNL4-3-LucE-” value (HIV-1 promoter; 12 hr post-transfection, CPX 30 μM, DEF 250 μM, P2 30 μM) is reported as “did not inhibit gene expression from the HIV molecular clone; also recorded: ineffective” and the “decrease” value (HIV-1 promoter) is reported as “no effect on HIV-driven gene expression”.
